Source: publication PMC8274477
No constants are given. Whether binding was seen depends on the method and setting. Some binding calls cover weakened binding; strength is not graded here.

By UniProt entry, the sequences of proteins in these tests, tags left out.
UniProt P19793: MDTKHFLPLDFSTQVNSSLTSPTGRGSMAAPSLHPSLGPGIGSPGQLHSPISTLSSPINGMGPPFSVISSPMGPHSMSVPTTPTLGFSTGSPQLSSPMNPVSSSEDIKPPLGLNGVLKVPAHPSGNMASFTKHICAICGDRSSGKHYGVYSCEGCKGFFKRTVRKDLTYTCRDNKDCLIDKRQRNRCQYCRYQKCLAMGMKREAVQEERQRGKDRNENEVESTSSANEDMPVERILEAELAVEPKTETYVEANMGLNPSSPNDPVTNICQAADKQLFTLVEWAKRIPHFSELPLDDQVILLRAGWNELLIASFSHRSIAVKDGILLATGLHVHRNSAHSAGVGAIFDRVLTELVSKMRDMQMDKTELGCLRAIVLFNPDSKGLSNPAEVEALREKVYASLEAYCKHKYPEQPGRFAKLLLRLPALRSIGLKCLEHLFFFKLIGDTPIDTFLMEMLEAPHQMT

Assays:
Assay in all cases: peptide or protein array; HuProt human proteome microarray; 5 ug/5 ml biotin-labelled LUBAC or OTULIN in solution, 1 h at room temperature; Cy5-streptavidin, scanned at 635 nm; BSA as negative control; hits: Z-score >= 3 and I_(Mean_Ratio) >= 1.4; both purified
SORBS1 (human) = target: T1, SORBS1 (human) (UniProt Q9BX66)
T1 sequence: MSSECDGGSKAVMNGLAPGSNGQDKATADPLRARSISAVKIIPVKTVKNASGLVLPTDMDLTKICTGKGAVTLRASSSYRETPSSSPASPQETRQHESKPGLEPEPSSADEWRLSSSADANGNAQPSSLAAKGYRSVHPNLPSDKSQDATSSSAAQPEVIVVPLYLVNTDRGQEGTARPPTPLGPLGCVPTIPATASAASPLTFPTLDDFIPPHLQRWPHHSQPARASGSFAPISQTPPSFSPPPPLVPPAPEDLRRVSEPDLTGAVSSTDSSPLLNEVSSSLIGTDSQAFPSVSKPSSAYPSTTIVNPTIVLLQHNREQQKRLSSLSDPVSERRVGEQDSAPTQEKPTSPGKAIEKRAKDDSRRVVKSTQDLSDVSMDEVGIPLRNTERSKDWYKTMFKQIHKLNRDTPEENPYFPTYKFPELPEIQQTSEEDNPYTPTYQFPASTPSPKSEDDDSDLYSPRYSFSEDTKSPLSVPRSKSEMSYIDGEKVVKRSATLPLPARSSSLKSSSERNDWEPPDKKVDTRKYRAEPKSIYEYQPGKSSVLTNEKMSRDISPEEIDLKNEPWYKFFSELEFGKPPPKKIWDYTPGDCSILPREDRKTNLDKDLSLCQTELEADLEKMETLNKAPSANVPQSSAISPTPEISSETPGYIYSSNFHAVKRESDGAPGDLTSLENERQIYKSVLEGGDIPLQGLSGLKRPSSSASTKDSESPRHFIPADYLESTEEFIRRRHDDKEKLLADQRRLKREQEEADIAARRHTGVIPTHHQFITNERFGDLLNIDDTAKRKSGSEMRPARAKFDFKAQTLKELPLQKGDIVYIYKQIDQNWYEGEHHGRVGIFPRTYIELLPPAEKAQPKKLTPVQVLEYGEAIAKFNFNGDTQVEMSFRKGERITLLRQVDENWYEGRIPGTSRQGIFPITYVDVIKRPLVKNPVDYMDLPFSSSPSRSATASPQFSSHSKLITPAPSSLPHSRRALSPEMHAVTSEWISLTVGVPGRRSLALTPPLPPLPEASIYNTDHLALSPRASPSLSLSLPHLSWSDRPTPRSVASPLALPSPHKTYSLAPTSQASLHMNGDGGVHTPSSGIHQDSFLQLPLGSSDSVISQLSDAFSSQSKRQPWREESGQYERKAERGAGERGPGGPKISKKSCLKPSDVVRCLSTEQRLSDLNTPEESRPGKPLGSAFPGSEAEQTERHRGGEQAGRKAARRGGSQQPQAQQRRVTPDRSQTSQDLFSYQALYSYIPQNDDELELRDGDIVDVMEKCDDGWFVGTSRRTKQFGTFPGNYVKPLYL

SSBP1 (human) = target: T2, SSBP1 (human) (UniProt Q04837)
T2 sequence: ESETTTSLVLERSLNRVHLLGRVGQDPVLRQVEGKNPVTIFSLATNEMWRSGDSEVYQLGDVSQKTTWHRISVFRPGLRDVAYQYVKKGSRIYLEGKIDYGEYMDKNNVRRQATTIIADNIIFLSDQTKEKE

RXRA (human) = RXRA (human) (UniProt P19793)
PXK (human) = target: T3, PXK (human) (UniProt Q7Z7A4)
T3 sequence: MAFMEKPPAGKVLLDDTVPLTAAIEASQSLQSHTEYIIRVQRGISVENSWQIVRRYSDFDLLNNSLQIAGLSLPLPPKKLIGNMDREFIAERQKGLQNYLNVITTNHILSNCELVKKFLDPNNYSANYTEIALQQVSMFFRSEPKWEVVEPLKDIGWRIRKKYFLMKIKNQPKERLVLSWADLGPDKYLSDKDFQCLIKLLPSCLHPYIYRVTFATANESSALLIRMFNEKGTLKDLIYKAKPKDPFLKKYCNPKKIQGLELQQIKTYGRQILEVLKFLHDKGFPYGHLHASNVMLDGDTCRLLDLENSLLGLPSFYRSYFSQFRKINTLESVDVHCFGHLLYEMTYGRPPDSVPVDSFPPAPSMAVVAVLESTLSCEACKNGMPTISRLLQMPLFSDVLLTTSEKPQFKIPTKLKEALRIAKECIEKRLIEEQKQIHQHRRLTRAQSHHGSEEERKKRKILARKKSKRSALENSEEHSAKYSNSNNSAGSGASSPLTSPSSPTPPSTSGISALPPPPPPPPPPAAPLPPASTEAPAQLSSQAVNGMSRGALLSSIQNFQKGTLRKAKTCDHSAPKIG

SOHLH2 (human) = target: T4, SOHLH2 (human) (UniProt Q9NX45)
T4 sequence: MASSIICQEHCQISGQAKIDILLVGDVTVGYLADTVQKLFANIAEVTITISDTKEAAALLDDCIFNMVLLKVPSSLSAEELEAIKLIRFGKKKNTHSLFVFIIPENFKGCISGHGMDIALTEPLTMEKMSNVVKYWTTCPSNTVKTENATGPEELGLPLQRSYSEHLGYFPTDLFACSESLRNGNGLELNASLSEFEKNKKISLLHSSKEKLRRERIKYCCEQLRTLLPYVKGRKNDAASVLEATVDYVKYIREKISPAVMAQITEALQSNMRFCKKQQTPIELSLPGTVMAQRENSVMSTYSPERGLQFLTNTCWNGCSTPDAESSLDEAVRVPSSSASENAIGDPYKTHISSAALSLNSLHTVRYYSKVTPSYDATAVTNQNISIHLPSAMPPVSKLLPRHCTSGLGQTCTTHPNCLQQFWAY

Measured: binding

OTULIN (OTU deubiquitinase with linear linkage specificity, FAM105B), His-tagged, biotin-labelled (from UniProt Q96BN8 1-352) (enzyme)
binds: SORBS1 (human) | SSBP1 (human)

linear ubiquitin chain assembly complex (LUBAC), purified as HIS-tagged HOIP with the subunit HOIL-1, biotin-labelled (from UniProt Q96EP0 1-1072; Q9BYM8 1-510)
binds: all assays above
